{"sequences": {"note": "By UniProt entry, the sequences of proteins in these tests, tags left out. Residues count along the entry.", "UniProt A5K736, residues 169-470": "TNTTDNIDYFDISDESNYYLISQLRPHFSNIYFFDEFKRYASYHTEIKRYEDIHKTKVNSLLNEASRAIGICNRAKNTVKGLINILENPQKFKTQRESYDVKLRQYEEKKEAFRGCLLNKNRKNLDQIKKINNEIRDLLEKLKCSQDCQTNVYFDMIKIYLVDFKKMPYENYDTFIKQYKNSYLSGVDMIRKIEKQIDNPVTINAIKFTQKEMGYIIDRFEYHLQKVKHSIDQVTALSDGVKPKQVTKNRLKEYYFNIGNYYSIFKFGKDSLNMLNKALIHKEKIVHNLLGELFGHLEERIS"}, "source": "paper PMC11929097", "about": "“Stabilized designs of the malaria adhesin protein PvRBP2b for use as a potential diagnostic for Plasmodium vivax [image fx2.gif]” (The Journal of Biological Chemistry, 2025)", "molecular_target": "parental PvRBP2b_(169-470) (Plasmodium vivax reticulocyte-binding protein 2b, N-terminal domain) (Plasmodium vivax strain Salvador I) (UniProt A5K736)", "assay": "dynamic light scattering; 1 mg/ml protein, DynaPro plate reader III, regularization analysis; hydrodynamic radius compared with the theoretical molecular weight; both purified", "note": "No constants are given. Whether binding was seen depends on the method and setting.", "data": [{"substance": "parental PvRBP2b_(169-470) (Plasmodium vivax reticulocyte-binding protein 2b, N-terminal domain) (from UniProt A5K736 169-470) (domain or fragment)", "values": [{"measurement": "binding", "result": "no binding (tested: 1 mg/ml)"}]}]}
